Data as given in article PMC7144320, “Antitumor properties of certain spirooxindoles towards hepatocellular carcinoma endowed with antioxidant activity” (Journal of Enzyme Inhibition and Medicinal Chemistry, 2020).

How the values were obtained:
[1] = tested on: non-tumorigenic human breast MCF-10A cell line; assay: Cytotoxicity towards non-tumorigenic MCF-10A cells; type: cell-based; settings: ratio of IC50 MCF-10A / IC50 HepG2
[2] = DPPH radical scavenging assay; settings: more potent than standard Ascorbic acid
Experimental: The antioxidant potential of spirooxindoles 6a–p against DPPH˙ was evaluated as per previously described procedures by Brand-Williams et al.[32]. DPPH solution was prepared by dissolving 0.024 g DPPH in methanol (100 mL). In 96-well plates, × μL sample and 200-x μL DPPH solution were added. The plate was incubated for 30 min at room temperature in the dark, and finally, absorbance was recorded at 517 nm wavelength. Ascorbic acid was used as positive control. The percent radical scavenging potential was calculated for each compound via the following equation: Scavenging effect (%) = {(Absorbance of control − Absorbance of sample)/Absorbance of control} × 100.
The DPPH (2,2-diphenyl-1-picrylhydrazyl) radical scavenging activity assay is considered as one of the most common and simple methods for measuring the antioxidant ability to trap free radicals. […] Substances that have the potential to act as electron donors result in reduction of this DPPH radical to the corresponding DPPH2 disclosing their antioxidant potential. The principle of the method relies upon measuring the absorbance of the odd electrons of DPPH at 517 nm. The absorbance decreases, in the presence of free radical scavengers, proportional to the decrease of the DPPH radical concentration.

Row | SMILES | Tumour S. I. (MCF-10A/HepG2) [1] | DPPH scavenging potency relative to Ascorbic acid [2]
1 | COc1ccc(C2=C(C#N)C3(C(=O)Nc4ccc(Br)cc43)c3c(-c4cccs4)nn(-c4ccccc4)c3N2)cc1 (centres unmarked) [Compound 6k] | 10.3 | 
2 | N#CC1=C(c2ccccc2)Nc2c(c(-c3cccs3)nn2-c2ccccc2)C12C(=O)Nc1ccc(Cl)cc12 (centres unmarked) [Compound 6e] | 8.3 | 
3 | N#CC1=C(c2ccccc2)Nc2c(c(-c3cccs3)nn2-c2ccccc2)C12C(=O)Nc1ccc(Br)cc12 (centres unmarked) [Compound 6i] | 12.2 | 
4 | Cc1ccc(C2=C(C#N)C3(C(=O)Nc4ccc(Br)cc43)c3c(-c4cccs4)nn(-c4ccccc4)c3N2)cc1 (centres unmarked) [Compound 6j] | 14.8 | 
5 | Cc1ccc(C2=C(C#N)C3(C(=O)Nc4ccccc43)c3c(-c4cccs4)nn(-c4ccccc4)c3N2)cc1 (centres unmarked) [Compound 6b] | 5.8 | 
6 | COc1ccc2c(c1)C1(C(=O)N2)C(C#N)=C(c2ccccc2)Nc2c1c(-c1cccs1)nn2-c1ccccc1 (centres unmarked) [Compound 6m] | 6.1 | 1.6 fold
7 | N#CC1=C(c2ccccc2)Nc2c(c(-c3cccs3)nn2-c2ccccc2)C12C(=O)Nc1ccccc12 (centres unmarked) [Compound 6a] | 13.7 | 1.6 fold
8 | Cc1ccc(C2=C(C#N)C3(C(=O)Nc4ccc(Cl)cc43)c3c(-c4cccs4)nn(-c4ccccc4)c3N2)cc1 (centres unmarked) [Compound 6f] | 4.9 | 
9 | COc1ccc(C2=C(C#N)C3(C(=O)Nc4ccccc43)c3c(-c4cccs4)nn(-c4ccccc4)c3N2)cc1 (centres unmarked) [Compound 6c] | 7.4 | 
